A short description of test [1]: wild-type E. coli growth inhibition versus h38 humanized strain – h38 mutant RFP, wild-type GFP, cherry-pick, dose response (AID 977622). The conditions noted are these: E. coli mixed culture, 24 h, total growth OD600 at 50 uM.
Test [2] concerns E. coli h38 humanized mutant ribosome RFP fluorescence, mixed culture, 24 h. The test is described as above. The conditions noted are these: h38 mutant RFP at 50 uM.

Molecules are shown by their SMILES. Some of the results follow. These are further read-outs of the screen, such as a control signal, another cell line or another target. No call is given for them.

Turning to `COc1ccc(OC)c(S(=O)(=O)Nc2cccc3ccc(O)cc23)c1`, the activity change in test [1] is -32.6%; in test [2] it was -27%. For the molecule `CC(C)(C)C1CCC(OCC(O)CN2CCN(c3ccccn3)CC2)CC1` (configuration not stated), the activity change in test [1] is -50.7%. On to `Cc1cc(SCC(=O)c2cccs2)n2nc(C)c(-c3ccc(Cl)cc3)c2n1`, for which the activity change was -2.12% in test [1] and -7.39% in test [2].

In the case of `CCOC(=O)Cc1nnc(NC(=O)CSc2nc3ccccc3[nH]2)s1`, the activity change was -14.9% in test [1] and -1.54% in test [2]. On to `O=C(NC1CCCC(C(F)(F)F)C1)c1ccc([N+](=O)[O-])o1` (configuration not stated), for which the activity change is -20.8% in test [1] and -35.6% in test [2].

Take `O=C(Nc1ccc(C(=O)N2CCOCC2)cc1)C1CCCC1`: the activity change in test [1] was 5.41%; in test [2] it was 24.3%. For the molecule `C[C@H](CO)N1C[C@H](C)[C@@H](CN(C)Cc2cccc(F)c2)Oc2ncc(C#CCc3ccccc3)cc2C1=O`, the activity change in test [1] is -92.5%; in test [2], 75.7%.

In the case of `Cc1cccc(-c2ccc([C@@H]3[C@@H](CO)N4CCCCN(S(=O)(=O)c5cccs5)C[C@H]34)cc2)c1`, the activity change in test [1] is -73.5%; in test [2], -32.8%. In the case of `Cc1ccc(NC(=O)c2ccc(NCCCN3CCC(C)CC3)c([N+](=O)[O-])c2)cc1F`, the activity change in test [1] is 0.422%; in test [2], -19.7%. For `COc1cccc(OCCNS(=O)(=O)c2ccccc2[N+](=O)[O-])c1`, in that order: -5.42% and -16.5%.

For `CCN(c1ccccc1)S(=O)(=O)c1ccc(OC)c(OC)c1`, the figures for the activity change in test [1] and in test [2] were -28.9% and -13.4%, respectively. `CN(c1ccccc1)S(=O)(=O)c1cccc(NC(=O)CCN2C(=O)C3CCCCC3C2=O)c1` (configuration not stated): the activity change in test [1] was -44.3%; in test [2], -12.2%. For `O=C(CSc1nc2ccccc2[nH]1)Nc1cccc(S(=O)(=O)N2CCOCC2)c1`, in that order: -60.3% and 57.2%. For the molecule `Cc1onc(-c2ccccc2Cl)c1C(=O)OCC(=O)c1ccccc1`, the results for the activity change in test [1] and in test [2] were -23.7% and -11.5%, respectively. Taken in the same sequence, the figures for `CCOC(=O)C(C)(C)n1nnc(-c2ccc([N+](=O)[O-])cc2)n1` were -1.47% and 2.57%. `Cc1cccc(NS(=O)(=O)c2cc3c(cc2C)NC(=O)CO3)c1`: the values for the activity change in test [1] and in test [2] were -4.81% and -9.68%, respectively. For the molecule `COc1ccc(CN(C)C[C@H]2Oc3ccc(NS(=O)(=O)c4ccc(Cl)cc4)cc3CC(=O)N([C@@H](C)CO)C[C@H]2C)cc1`, the activity change in test [1] was -32.8%; in test [2], 130%. For the molecule `O=C(COC(=O)C1CC2C=CC1C2)NCCc1ccccc1` (configuration not stated), the activity change is -9.44% in test [1] and 24.7% in test [2]. For `COc1ccc(-n2c(-c3ccc(Cl)cc3)c[n+]3c2CCCCC3)cc1`, in test [1], the activity change was -68.6%. As to `Cc1cc(C(C)(C)C)oc1C(=O)N(CC(=O)NC1CCCC1)c1c(C)cccc1C`, the values for the activity change in test [1] and in test [2] were -21.6% and 3.4%, respectively.

With `COc1ccc(-c2csc(NC(=O)c3ccccc3S(C)(=O)=O)n2)cc1`, the activity change in test [1] was -47.2%; in test [2], -40%. For `Cc1noc2ncnc(SCc3ccc(C(F)(F)F)cc3)c12`, the activity change is -30.2% in test [1] and -19.1% in test [2]. For the molecule `CN(C)CCCn1c(=O)n(Cc2ccco2)c(=O)c2c3c(sc21)CCCCC3`, the values for the activity change in test [1] and in test [2] were -19.7% and -4.63%, respectively. `O=C(COc1ccc(Br)cc1)Nc1ccc(C(=O)Nc2ccccc2C(=O)O)cc1`: the activity change in test [1] was -16.4%; in test [2], -20.4%. For `CCOc1ccc2[nH]c3c(NCCN(C)C)ncnc3c2c1`, in test [1], the activity change came out at 0.696%. Take `COc1ccc(NC(=O)C2CC3C=CC2C3)c([N+](=O)[O-])c1` (configuration not stated): in test [2], the activity change is -7.56%. In the case of `CCn1cc(CCC(=O)NCCc2ccccc2)c2ccccc21`, the results for the activity change in test [1] and in test [2] were -53% and -3.52%, respectively. On to `O=C(Nc1ccccc1)N1C[C@@H]2N[C@H](C1)[C@@H]2c1ccc(/C=C/c2ccccc2)cc1`, for which the activity change in test [1] was -97.9%. With `Cc1ccc(C2NC(=O)c3[nH]nc(-c4ccccc4)c32)cc1` (configuration not stated), the activity change was -58.5% in test [1] and -8.2% in test [2]. As to `Cc1cc([N+](=O)[O-])nn1CC(=O)Nc1cc(F)ccc1F`, the activity change in test [1] was 1.22%; in test [2], -23.5%. On to `CCCn1c(NCc2ccc3c(c2)OCO3)nc2ccccc21`, for which the activity change in test [2] amounted to 1.53%. Consider `C[C@@H]1NS(=O)(=O)c2c(F)cccc2O[C@@H]1c1ccccc1`, for which the activity change in test [1] was -38.4%; in test [2], 13%. For `Cc1ccc2c(c1C)OC(=O)CC2c1ccccc1` (configuration not stated), in that order: -55% and -12.4%.

Consider `Cc1[nH]c2ccccc2c1C(=O)CSc1nc2ccccc2[nH]1`, for which the activity change in test [1] is -35.4%. `C[C@@H]1CN([C@@H](C)CO)C(=O)CCCn2nncc2CO[C@H]1CN(C)C(=O)Nc1ccc(C(F)(F)F)cc1`: the activity change in test [1] was -58.3%; in test [2] it was -25%.

With `O=C(C[C@@H]1CC[C@H]2[C@@H](COC[C@H](O)CN2C(=O)Nc2cc(Cl)cc(Cl)c2)O1)N1CCOCC1`, the activity change in test [1] is -17.5%; in test [2], 42.1%. Regarding `C[C@@H]1CCCCO[C@H](CN(C)C(=O)CCCN(C)C)[C@@H](C)CN([C@H](C)CO)C(=O)c2cc(NC(=O)Nc3cccc4ccccc34)ccc2O1`, the values for the activity change in test [1] and in test [2] were -6.36% and -9.22%, respectively. In the case of `COc1ccc(NC(=O)Nc2cccc3c2O[C@H](CN(C)S(=O)(=O)c2ccc(Cl)cc2)[C@H](C)CN([C@H](C)CO)C3=O)cc1`, the activity change was -56.1% in test [1] and -17.9% in test [2]. With `Cc1ccc(CNS(=O)(=O)c2ccc3c(c2)NC(=O)CS3)cc1`, the activity change in test [1] is -53.4%. For the molecule `Cc1ccc(S(=O)(=O)Nc2cccc(-c3ccc(N4CCCCCC4)nn3)c2)cc1`, the results for the activity change in test [1] and in test [2] were -46.1% and 10.9%, respectively. As for `O=C(O)CCn1c(SCc2cccc3ccccc23)nc2ccccc21`, the activity change in test [1] is -34.2%. For `Cc1cc(C(N)=O)nn1-c1c(Cl)cc(Cl)cc1Cl`, the activity change is -16.9% in test [1] and -17.6% in test [2]. For `CC1Cc2cc(S(=O)(=O)N3CCN(c4cccc(Cl)c4)CC3)ccc2N1C(=O)C1CC1` (configuration not stated), the activity change in test [1] was -26.4%; in test [2], -5.09%.

The values above are taken from PubChem BioAssay AID977622 (Broad Institute, 2014).
